Assay [1] concerns the target T1, Myc-RLIM (RING finger LIM domain-binding protein, Myc tagged) (UniProt Q9NVW2).
T1 sequence: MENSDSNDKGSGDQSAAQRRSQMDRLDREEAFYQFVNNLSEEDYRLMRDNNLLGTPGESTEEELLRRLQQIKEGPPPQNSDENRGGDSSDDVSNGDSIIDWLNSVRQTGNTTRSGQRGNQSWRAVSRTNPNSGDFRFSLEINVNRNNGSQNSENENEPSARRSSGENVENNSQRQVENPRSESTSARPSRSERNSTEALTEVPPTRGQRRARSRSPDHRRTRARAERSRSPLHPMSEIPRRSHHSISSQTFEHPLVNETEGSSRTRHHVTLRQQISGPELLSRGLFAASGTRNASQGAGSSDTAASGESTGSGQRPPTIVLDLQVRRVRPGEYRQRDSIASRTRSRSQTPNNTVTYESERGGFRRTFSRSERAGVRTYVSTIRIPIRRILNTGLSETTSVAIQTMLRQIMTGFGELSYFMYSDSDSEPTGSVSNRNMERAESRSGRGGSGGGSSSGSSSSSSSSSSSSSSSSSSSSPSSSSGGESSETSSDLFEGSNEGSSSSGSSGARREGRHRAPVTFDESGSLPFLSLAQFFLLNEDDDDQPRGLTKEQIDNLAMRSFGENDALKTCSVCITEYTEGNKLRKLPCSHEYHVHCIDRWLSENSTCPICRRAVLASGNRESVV
Nature of the assay: co-IP; HEK 293T cells co-transfected with tagged constructs, lysed 48 h after transfection (20 mM Tris-HCl pH 7.4, 2 mM EDTA, 25 mM NaF, 1% Triton X-100); IP with Myc, Flag or HA antibody and protein A/G beads overnight at 4 °C; immunoblotting; in Figure 4E with or without HA-RLIM (1 or 2 μg). For orientation: In western blotting, separated proteins are transferred to a membrane and probed.

Assay [2] concerns the target T2, endogenous RLIM (human (endogenous in SK-Hep1 and HepG2)) (UniProt Q9NVW2).
T2 sequence: T1 sequence
Nature of the assay: co-IP; endogenous proteins; IP of endogenous RLIM from SK-Hep1 and HepG2 lysates, or of endogenous c-MYC from SK-Hep1 cells infected with RFP or RLIM adenovirus or transfected with scramble or RLIM siRNAs; protein A/G beads overnight at 4 °C; immunoblotting.

Assay [3] addresses T3, Flag-MIZ1 (MYC-interacting zinc-finger protein 1, Flag tagged) (UniProt Q13105).
T3 sequence: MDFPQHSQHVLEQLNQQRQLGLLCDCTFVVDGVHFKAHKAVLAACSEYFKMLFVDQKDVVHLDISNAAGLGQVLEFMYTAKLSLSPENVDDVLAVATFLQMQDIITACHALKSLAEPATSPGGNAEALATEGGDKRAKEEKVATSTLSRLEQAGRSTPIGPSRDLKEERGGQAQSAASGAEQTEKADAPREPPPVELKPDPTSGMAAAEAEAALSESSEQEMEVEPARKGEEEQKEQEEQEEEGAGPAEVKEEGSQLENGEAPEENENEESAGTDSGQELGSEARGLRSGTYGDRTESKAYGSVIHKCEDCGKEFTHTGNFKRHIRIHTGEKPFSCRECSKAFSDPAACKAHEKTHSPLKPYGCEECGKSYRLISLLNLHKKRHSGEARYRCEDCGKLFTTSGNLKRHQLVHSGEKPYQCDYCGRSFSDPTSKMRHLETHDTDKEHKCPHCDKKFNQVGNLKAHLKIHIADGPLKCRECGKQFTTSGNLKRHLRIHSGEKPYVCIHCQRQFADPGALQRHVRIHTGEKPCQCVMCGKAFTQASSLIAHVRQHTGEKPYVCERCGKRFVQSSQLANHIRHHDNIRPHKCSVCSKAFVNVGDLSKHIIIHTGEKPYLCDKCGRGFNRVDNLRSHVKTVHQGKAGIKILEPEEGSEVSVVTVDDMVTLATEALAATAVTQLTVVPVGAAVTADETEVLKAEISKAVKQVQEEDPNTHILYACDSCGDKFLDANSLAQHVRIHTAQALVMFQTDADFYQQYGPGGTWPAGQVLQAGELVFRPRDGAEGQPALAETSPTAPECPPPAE
Kind of assay: co-IP; HEK 293T cells co-transfected with tagged constructs, lysed 48 h after transfection (20 mM Tris-HCl pH 7.4, 2 mM EDTA, 25 mM NaF, 1% Triton X-100); IP with Myc, Flag or HA antibody and protein A/G beads overnight at 4 °C; immunoblotting; in Figure 4E with or without HA-RLIM (1 or 2 μg).

These are yes or no findings as the source states them, for the method shown. In cells and extracts the contact can be indirect. Some results given as binding are weak or reduced against the parent protein; the word gives no strength. For some of these results: Where a sequence is shown, tags or fusion partners need not be part of it.

B1: Flag-MIZ1 (MYC-interacting zinc-finger protein 1, Flag tagged) (protein, UniProt Q13105 1-803)
chain: T3 sequence
B1: the binding result in assay [1] is listed as “binds”.

B2: endogenous MIZ1 (protein, UniProt Q13105 1-803)
chain: T3 sequence
With B2, the binding result in assay [2] is recorded as “binds”.

B3: MIZ1 C terminal region (637-803aa) truncation fragment (domain or fragment, UniProt Q13105 637-803)
chain: HQGKAGIKILEPEEGSEVSVVTVDDMVTLATEALAATAVTQLTVVPVGAAVTADETEVLKAEISKAVKQVQEEDPNTHILYACDSCGDKFLDANSLAQHVRIHTAQALVMFQTDADFYQQYGPGGTWPAGQVLQAGELVFRPRDGAEGQPALAETSPTAPECPPPAE
As to B3, in assay [1], the binding entry is listed as “binds”.

B4: Myc-RLIM (RING finger LIM domain-binding protein, Myc tagged) (protein, UniProt Q9NVW2 1-624)
chain: T1 sequence
For B4, the binding result in assay [3] is recorded as “binds”.

(Values after PMC5669951.)
